Results as given in US12660820B2, “Heterocyclic compound and harmful arthropod-controlling composition including same” (SUMITOMO CHEMICAL COMPANY, LIMITED, priority 2020, dated 2026).
Some entries share one result that the patent states for a list of compounds. At least one compound was matched to its structure with a doubt left.

Columns and labels:
Assay type in all cases: in vivo
[1] = system: cotton aphids (Aphis gossypii); experiment: Test Method 1: foliar spray on cucumber seedling infested with cotton aphids (Formulation Example 1); settings: Test Example 1-1; 500 ppm; spray 10 mL/seedling; 5 days after spraying
[2] = system: cotton aphids (Aphis gossypii); experiment: Test Method 2: soil drench of cucumber seedling, cotton aphids released after 7 days; settings: drench 5 mL/seedling, 6 days after release
[3] = system: cotton aphids (Aphis gossypii); experiment: Test Method 9: foliar spray on cucumber seedling infested with cotton aphids (Formulation Example 5); settings: Test Example 9-2; 50 ppm; 5 days after spraying
Procedure: Cucumber (Cucumis sativus) seedling (on the developmental stage of the second true leaf) is planted in a container and approximately 30 cotton aphids (Aphis gossypii) (all developmental stages of life) are released onto the leaves of the cucumber. After 1 day, the diluted solutions are sprayed to the seedling at a ratio of 10 mL/seedling. Further, after 5 days, the number of the surviving insects is examined and the controlling value is calculated by the following equation. Controlling value (%)={1−(Cb×Tai)/(Cai×Tb)}×100 wherein the symbols in the formula represent the following descriptions. • Cb: Number of the test insects in untreated group; • Cai: Number of the surviving insects at the time of the investigation in untreated group; • Tb: Number of the test insects in treated group; • Tai: Number of the surviving insects at the time of the investigation in treated group; Here the “untreated group” represents a group where the similar treatment procedure to that of the treated group except not using the test compound is done.

Measured: Controlling value

CCS(=O)(=O)c1c(-c2cnc3cc(C(F)(F)F)ccn3c2=O)nc2cc(C(F)(F)F)ccn12 [compound 6]
≥ 90%: [1] | [2]; Test Example 2-1, 1000 ppm | [2]; Test Example 2-2, 250 ppm | [2]; Test Example 2-3, 200 ppm | [2]; Test Example 2-4, 50 ppm | [3]

CCS(=O)(=O)c1c(-c2cnc3cc(C(F)(F)F)ccn3c2=O)nc2ccc(Cl)cn12 [compound 7]
≥ 90%: [1] | [2]; Test Example 2-2, 250 ppm | [2]; Test Example 2-4, 50 ppm | [3]

CCS(=O)(=O)c1c(-c2cnc3cc(C(F)(F)F)ccn3c2=O)nc2ccc(I)cn12 [compound 8]
≥ 90%: [1] | [2]; Test Example 2-2, 250 ppm | [2]; Test Example 2-4, 50 ppm | [3]
